Laboratory results: the supplement of paper PMC11732987, “Enantioselective OTUD7B fragment discovery through chemoproteomics screening and high-throughput optimisation” (Communications Chemistry, 2025)
The list shows a part of the results. The data scatter; read single values as rough.

Chains of the proteins cited; added tags and fusions are not shown. Lines headed by an entry give the natural chain unless they say otherwise; changes in a name come on top. Residues count along the entry.
UniProt Q96Q15: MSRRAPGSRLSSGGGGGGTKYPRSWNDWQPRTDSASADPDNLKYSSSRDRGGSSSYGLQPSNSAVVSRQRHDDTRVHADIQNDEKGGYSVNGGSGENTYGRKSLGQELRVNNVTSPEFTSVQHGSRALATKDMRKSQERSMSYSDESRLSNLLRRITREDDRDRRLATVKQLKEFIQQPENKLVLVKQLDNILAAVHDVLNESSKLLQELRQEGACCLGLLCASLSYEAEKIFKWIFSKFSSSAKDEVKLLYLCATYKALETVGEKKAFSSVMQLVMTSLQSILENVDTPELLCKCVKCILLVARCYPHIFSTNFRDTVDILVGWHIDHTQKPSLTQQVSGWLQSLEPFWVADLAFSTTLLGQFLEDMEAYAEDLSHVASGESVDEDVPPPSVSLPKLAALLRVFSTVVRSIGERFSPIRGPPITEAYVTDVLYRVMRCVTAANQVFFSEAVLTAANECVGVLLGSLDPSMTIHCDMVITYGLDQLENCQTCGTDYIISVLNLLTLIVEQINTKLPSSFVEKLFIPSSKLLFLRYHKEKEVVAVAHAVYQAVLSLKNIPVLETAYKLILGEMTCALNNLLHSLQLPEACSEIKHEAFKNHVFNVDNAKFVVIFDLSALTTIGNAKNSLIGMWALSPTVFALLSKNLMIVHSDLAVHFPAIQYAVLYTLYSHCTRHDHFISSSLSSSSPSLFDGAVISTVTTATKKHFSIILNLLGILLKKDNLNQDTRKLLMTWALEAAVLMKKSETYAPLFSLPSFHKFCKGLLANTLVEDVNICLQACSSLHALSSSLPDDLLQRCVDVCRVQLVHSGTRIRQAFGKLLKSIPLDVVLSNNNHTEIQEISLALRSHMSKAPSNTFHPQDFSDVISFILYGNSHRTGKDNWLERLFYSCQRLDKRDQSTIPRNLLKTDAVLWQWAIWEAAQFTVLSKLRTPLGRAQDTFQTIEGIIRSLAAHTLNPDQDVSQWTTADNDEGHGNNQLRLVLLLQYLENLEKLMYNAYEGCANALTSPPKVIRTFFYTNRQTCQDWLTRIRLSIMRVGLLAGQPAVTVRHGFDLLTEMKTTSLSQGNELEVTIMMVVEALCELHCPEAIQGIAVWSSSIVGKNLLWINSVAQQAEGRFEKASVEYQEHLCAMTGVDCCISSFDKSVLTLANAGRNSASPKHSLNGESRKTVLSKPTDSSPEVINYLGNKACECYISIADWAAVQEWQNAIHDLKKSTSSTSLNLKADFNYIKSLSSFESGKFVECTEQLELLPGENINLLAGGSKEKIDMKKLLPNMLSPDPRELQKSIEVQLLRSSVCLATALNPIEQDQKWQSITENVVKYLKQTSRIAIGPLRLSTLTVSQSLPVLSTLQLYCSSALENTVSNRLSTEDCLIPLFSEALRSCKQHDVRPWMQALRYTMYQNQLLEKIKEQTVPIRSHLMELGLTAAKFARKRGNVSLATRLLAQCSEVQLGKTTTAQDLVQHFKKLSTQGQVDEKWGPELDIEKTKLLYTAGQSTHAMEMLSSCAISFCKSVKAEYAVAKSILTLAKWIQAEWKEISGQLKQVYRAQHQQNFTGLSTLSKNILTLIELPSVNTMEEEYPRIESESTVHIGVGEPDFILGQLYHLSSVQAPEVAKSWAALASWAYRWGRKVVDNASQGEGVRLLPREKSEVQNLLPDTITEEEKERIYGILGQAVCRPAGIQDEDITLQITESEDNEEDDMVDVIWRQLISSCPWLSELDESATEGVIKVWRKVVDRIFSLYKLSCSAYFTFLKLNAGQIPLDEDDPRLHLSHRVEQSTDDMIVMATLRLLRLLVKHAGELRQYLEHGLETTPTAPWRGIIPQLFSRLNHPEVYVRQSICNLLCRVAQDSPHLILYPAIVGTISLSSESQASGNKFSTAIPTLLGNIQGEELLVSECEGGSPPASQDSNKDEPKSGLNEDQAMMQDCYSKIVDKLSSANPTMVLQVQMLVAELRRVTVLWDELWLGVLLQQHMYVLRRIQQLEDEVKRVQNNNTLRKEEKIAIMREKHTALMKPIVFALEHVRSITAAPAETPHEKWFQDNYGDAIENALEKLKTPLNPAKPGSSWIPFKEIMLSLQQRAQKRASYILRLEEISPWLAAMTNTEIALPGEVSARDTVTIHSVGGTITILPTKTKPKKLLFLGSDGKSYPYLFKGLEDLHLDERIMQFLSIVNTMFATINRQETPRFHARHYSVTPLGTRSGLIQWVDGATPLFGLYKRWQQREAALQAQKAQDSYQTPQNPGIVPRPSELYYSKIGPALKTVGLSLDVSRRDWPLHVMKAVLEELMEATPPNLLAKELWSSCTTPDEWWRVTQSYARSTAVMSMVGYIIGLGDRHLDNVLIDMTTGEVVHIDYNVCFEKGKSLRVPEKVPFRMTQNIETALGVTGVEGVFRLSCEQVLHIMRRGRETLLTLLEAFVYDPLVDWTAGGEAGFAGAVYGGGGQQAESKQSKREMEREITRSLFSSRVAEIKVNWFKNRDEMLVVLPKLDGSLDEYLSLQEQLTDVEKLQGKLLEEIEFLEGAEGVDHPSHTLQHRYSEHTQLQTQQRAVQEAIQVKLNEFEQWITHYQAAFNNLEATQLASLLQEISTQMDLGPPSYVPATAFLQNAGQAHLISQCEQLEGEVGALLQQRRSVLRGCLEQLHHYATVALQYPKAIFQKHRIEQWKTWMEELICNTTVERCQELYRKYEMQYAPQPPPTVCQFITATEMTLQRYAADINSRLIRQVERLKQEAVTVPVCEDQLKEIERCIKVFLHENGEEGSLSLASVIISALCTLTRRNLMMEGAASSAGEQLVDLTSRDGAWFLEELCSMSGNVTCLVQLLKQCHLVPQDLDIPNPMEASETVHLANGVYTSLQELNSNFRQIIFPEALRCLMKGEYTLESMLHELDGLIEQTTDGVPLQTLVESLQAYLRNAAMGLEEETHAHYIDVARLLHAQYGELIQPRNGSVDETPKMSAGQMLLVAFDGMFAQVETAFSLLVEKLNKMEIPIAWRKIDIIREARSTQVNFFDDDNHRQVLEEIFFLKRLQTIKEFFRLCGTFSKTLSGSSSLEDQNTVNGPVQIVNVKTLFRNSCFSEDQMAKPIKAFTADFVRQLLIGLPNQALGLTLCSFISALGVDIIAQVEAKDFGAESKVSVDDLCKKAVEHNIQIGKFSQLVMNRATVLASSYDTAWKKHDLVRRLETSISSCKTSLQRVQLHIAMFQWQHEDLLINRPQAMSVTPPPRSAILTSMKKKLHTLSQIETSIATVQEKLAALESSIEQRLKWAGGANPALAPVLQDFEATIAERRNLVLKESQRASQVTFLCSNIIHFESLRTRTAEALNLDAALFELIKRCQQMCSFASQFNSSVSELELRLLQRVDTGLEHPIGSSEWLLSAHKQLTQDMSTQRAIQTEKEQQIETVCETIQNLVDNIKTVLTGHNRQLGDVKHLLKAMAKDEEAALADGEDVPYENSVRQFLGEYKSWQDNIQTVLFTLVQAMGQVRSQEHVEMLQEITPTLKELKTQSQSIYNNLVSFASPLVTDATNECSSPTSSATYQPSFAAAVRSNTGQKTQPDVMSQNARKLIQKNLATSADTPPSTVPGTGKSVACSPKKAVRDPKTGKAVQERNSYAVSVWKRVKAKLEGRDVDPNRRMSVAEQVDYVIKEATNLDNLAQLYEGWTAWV
UniProt Q6IEG0: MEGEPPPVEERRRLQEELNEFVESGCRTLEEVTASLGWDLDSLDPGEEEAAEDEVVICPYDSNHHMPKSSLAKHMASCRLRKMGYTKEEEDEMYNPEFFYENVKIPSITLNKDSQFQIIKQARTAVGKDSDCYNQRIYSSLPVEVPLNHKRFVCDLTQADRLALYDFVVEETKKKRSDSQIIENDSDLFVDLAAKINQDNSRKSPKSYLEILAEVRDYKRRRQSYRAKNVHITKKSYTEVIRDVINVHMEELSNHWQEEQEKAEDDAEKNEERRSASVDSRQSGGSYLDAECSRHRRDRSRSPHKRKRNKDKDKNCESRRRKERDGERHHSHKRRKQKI
UniProt P57768, 54-74: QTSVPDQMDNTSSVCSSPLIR
UniProt Q7KZF4: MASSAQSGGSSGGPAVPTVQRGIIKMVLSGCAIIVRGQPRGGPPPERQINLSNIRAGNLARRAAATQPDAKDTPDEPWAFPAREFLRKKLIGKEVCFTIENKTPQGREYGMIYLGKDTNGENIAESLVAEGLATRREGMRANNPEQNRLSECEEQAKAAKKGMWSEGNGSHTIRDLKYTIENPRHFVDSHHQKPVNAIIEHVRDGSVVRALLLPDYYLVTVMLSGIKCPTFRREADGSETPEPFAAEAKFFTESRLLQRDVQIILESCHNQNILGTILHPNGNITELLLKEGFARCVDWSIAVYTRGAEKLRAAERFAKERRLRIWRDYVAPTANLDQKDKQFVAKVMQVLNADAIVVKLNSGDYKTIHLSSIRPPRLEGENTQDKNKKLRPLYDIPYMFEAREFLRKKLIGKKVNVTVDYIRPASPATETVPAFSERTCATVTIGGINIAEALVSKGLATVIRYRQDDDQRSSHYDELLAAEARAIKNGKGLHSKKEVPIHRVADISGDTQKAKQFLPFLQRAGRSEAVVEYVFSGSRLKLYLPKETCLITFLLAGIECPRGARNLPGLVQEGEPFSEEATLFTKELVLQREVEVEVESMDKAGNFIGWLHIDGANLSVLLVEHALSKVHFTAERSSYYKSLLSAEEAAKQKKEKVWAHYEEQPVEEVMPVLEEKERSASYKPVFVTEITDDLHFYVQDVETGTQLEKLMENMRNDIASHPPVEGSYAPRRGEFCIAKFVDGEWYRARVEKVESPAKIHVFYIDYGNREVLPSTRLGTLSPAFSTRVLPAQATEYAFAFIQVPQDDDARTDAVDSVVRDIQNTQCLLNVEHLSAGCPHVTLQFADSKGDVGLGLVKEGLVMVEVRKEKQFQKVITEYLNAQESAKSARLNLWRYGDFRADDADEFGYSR
UniProt Q96QE2, 26-66: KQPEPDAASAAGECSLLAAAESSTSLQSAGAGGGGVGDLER
UniProt Q15797: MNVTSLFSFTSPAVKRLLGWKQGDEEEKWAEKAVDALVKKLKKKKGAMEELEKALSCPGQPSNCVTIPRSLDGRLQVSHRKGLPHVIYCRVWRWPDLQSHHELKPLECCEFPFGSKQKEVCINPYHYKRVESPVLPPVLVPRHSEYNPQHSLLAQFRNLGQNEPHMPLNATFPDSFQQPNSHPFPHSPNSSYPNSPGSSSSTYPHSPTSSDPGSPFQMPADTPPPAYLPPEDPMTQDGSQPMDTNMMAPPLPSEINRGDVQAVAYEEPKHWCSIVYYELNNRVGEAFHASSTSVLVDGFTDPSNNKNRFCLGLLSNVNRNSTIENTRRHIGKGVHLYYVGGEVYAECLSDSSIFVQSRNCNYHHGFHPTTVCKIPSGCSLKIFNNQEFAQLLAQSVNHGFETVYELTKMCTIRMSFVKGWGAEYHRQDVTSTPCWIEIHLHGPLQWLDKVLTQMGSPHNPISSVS
UniProt O14975: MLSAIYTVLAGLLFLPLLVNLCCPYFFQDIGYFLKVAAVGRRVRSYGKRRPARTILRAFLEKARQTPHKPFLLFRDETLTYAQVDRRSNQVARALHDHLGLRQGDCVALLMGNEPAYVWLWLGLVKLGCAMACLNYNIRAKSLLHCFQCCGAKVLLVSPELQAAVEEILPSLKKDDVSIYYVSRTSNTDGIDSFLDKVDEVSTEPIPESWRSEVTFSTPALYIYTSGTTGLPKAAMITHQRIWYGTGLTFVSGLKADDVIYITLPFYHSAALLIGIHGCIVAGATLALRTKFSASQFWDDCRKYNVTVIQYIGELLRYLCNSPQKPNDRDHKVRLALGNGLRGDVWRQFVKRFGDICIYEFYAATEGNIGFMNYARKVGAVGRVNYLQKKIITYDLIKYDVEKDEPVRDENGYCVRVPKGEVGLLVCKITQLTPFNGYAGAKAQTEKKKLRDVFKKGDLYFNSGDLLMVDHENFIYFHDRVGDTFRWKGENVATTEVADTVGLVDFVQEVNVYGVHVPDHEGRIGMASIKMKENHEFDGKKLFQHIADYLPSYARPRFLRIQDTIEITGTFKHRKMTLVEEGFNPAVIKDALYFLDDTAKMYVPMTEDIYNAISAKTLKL
UniProt Q9H7B4: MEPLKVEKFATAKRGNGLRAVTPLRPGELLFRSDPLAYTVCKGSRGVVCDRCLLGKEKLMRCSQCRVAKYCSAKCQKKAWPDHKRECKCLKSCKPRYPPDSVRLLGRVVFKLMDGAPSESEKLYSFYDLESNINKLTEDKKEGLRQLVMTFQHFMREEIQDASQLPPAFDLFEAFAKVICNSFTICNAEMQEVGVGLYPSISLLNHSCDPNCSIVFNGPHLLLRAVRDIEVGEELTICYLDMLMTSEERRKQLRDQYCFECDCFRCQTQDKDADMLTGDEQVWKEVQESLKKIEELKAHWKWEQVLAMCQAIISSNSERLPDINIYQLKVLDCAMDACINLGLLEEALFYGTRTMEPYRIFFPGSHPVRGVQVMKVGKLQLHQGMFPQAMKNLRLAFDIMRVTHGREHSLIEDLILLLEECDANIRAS
UniProt Q9BWU0, 647-671: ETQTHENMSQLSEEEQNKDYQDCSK

Key:
[1] = compound: ClCC(=O)N[C@@H]1CCCc2ccccc12; test: log2 mean competition ratio of IA-DTB cysteine labelling (DMSO/compound) (log2 ratio); higher = stronger cysteine engagement by compound; conditions: treatment time: 4 h, cell line lysate: HEK293T
Description: (§1)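 IA-DTB competitive cysteine chemoproteomics in HEK293T RIPA lysate. Lysates were treated with compound 29 or 30 at 50 or 200 µM for 4 h, then IA-DTB (500 µM, 1 h), trypsin-digested, NeutrAvidin-enriched and analysed by diaPASEF. Competition ratio = intensity DMSO / intensity compound (n=4 treated, n=64 DMSO); binding: mean log2 CR ≥ 1 and p ≤ 0.05 plus QC filters. Target is the cysteine site.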

[2] = compound: ClCC(=O)N[C@H]1CCCc2ccccc12; test: as above; conditions: treatment time: 4 h, cell line lysate: HEK293T
Description: as §1

Target	log2 mean competition ratio ([1]; 50 µM)	log2 mean competition ratio ([1]; 200 µM)	log2 mean competition ratio ([2]; 50 µM)	log2 mean competition ratio ([2]; 200 µM)
SLC27A4 C323 (UniProt Q6P1M0)	0.0893	-0.146	-0.212	-0.0876
SMG1 C3072 (UniProt Q96Q15)	0.0208	0.142	-0.643	0.151
SMU1 C383 (UniProt Q2TAY7)	-0.114	-0.0311	-0.299	-0.114
SNRNP48 C26 (UniProt Q6IEG0)	-0.198	0.218	-0.146	0.175
SORT1 C86 (UniProt Q99523)	-0.0667	0.377	-0.159	0.466
SLC25A46 C239 (UniProt Q96AG3)	-0.0967	-0.141	-0.375	-0.0729
SNX1 C8 (UniProt Q13596)	-0.0502	0.0545	0.335	0.319
SNTB2 C391 (UniProt Q13425)	0.0524	0.312	-0.0652	0.325
SLC4A2 C1215 (UniProt P04920)	-0.228	-0.107	-0.0601	-0.025
SNX16 C68 (UniProt P57768)	-0.626	0.192	-0.219	0.32
SMAD5 C378 (UniProt Q99717)	-0.0739	-0.169	0.334	-0.0364
SLC25A25 C322 (UniProt Q6KCM7)	0.355	0.126	-0.27	0.0921
SON C92 (UniProt P18583)	0.27	-0.111	-0.348	-0.134
SND1 C31 (UniProt Q7KZF4)	0.449	0.238	0.512	-0.0604
SMTN C410 (UniProt P53814)	-0.13	-0.0212	-0.125	0.017
SLC2A13 C39 (UniProt Q96QE2)	-0.353	-0.0231	0.457	-0.0429
SMARCAD1 C568 (UniProt Q9H4L7)	-0.0116	-0.269	-0.115	-0.0293
SMARCD2 C365 (UniProt Q92925)	-0.139	0.48	-0.0564	0.224
SLC47A1 C497	0.0308	-0.0932	0.373	-0.282
SKA1 C29 (UniProt Q96BD8)	0.0367	-0.145	0.537	0.355
SMARCA5 C259 (UniProt O60264)	-0.146	0.218	-0.479	0.188
SNX1 C318 (UniProt Q13596)	-0.0737	-0.0854	-0.323	-0.121

Part of the list above, in CSV form.
Target,log2 mean competition ratio ([1]; 50 µM),log2 mean competition ratio ([1]; 200 µM),log2 mean competition ratio ([2]; 50 µM),log2 mean competition ratio ([2]; 200 µM)
SMU1 C383 (UniProt Q2TAY7),-0.114,-0.0311,-0.299,-0.114
SNRNP48 C26 (UniProt Q6IEG0),-0.198,0.218,-0.146,0.175
SORT1 C86 (UniProt Q99523),-0.0667,0.377,-0.159,0.466

Next part:

Target	log2 mean competition ratio ([1]; 50 µM)	log2 mean competition ratio ([1]; 200 µM)	log2 mean competition ratio ([2]; 50 µM)	log2 mean competition ratio ([2]; 200 µM)
SMYD4 C380 (UniProt Q8IYR2)	-0.0846	0.125	-0.239	0.0436
SLC19A1 C220 (UniProt P41440)	-0.0351	0.0116	-0.193	0.0587
SMAD1 C121 (UniProt Q15797)	0.0831	0.1	0.27	0.141
SLC22A17 C525	-0.204	-0.0833	-0.0594	0.139
SLC39A10 C153 (UniProt Q9ULF5)	-0.374	0.35	-0.669	0.0589
SNF8 C72 (UniProt Q96H20)	-0.113	-0.156	0.0433	-0.25
SNRNP48 C132 (UniProt Q6IEG0)	-0.222	0.148	-0.185	0.0507
SLC27A2 C414 (UniProt O14975)	-0.337	0.0177	-0.335	-0.0406
SLC12A9 C771 (UniProt Q9BXP2)	0.634	0.0213	-0.0634	0.226
SLC25A6 C57 (UniProt P12236)	0.364	-0.103	0.142	0.0535
SMG1 C1929 (UniProt Q96Q15)	-0.0959	-0.386	0.127	-0.324
SLBP C15 (UniProt Q14493)	0.0233	0.258	-0.0392	0.313
SMG5 C39 (UniProt Q9UPR3)	0.082	-0.0514	-0.272	-0.0812
SMYD3 C41 (UniProt Q9H7B4)	-0.0705	-0.0753	0.416	0.153
SMG7 C476 (UniProt Q92540)	-0.0445	-0.0487	-0.0415	0.0421
SMG1 C2738 (UniProt Q96Q15)	-0.216	0.0938	-0.206	-0.065
SLK C552	-0.473	0.0184	-0.219	-0.107
SLC25A22 C52 (UniProt Q9H936)	0.351	0.193	-0.038	0.17
SMAD2 C380 (UniProt Q15796)	0.116	-0.0192	-0.139	-0.0141
SMCHD1 C1433 (UniProt A6NHR9)	0.000738	0.0726	-0.716	0.21
SLC4A1AP C723 (UniProt Q9BWU0)	-0.0314	0.00295	0.206	0.0974
